Results are given in words; binding and its absence hold for the method and conditions named. Binding seen in cells or lysates may run through a third protein. Some results given as binding are weak or reduced against the parent protein; the word gives no strength.
Target: T1, GLD-1 (C. elegans (endogenous in worm lysate)) (UniProt Q17339)
T1 sequence: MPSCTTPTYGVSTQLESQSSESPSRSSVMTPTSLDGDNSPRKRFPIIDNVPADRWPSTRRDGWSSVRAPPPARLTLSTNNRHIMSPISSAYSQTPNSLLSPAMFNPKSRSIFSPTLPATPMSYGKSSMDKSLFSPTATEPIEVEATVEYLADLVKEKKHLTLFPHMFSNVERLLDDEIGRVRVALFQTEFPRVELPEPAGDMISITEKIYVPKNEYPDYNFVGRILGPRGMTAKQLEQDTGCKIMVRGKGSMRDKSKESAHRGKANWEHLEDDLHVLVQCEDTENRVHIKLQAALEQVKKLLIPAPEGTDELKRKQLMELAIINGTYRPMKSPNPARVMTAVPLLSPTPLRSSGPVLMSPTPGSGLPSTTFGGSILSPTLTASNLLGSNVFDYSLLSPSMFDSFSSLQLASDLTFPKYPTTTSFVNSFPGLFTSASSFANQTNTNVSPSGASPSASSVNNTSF
Experiment: co-IP; GLD-1 IPs from worm lysate, co-precipitated proteins detected by western blot

B1: PAB-1 (protein, UniProt Q9U302 1-646)
chain: MEMNVAAPAAAVAGAAAPQPGQNQTGSSYTMASLYVGDLHPDVNESILFEKFSAAGPVLSIRVCRDNATRLSLGYAYVNFQQPADAERAMDTMNFEALHGKPMRIMWSQRDPAMRRSGAGNIFIKNLDKVIDNKSIYDTFSLFGNILSCKVAIDEDGFSKGYGFVHFETEEAAQNAIQKVNGMLLAGKKVFVGKFQPRAQRNRELGETAKQFTNVYVKNFGDHYNKETLEKLFAKFGNITSCEVMTVEGKSKGFGFVAFANPEEAETAVQALHDSTIEGTDLKLHVCRAQKKSERHAELKKKHEQHKAERMQKYQGVNLYVKNLDETVDDDGLKKQFESYGNITSAKVMTDENGRSKGFGFVCFEKPEEATSAVTEMNSKMVCSKPLYVAIAQRKEDRRAQLASQYMQRLASMRMHGNVPGAAMYNPTQPGPGYYVANPMQQQRNFAGGQQMVRPGGRWGMQNQYPVQNQYMMAQGPGVYQNRMGRPQNQQGGPRGPPQQYNQVAQGGVRMQGPPRTQNPGVQQQNVPRPPQQQQQQRPAPTGPKAPPQPYQAYQQRPQGIVIGGQEPLTSAMLAAAAPQEQKQLLGERIYALIEKLYPGHKDAGKITGMMLEIDNSELIMMLQDSELFRSKVDEAASVLVSAQKQ
Which binding does the source give for B1 here?
The binding was “binds”.

B2: CAR-1 (protein, UniProt Q9XW17 1-340)
chain: MSNQTPYIGSKISLISKLDIRYEGILYTVDTNDSTIALAKVRSFGTEKRPTANPVAARDDVYEYIIFKASDIKDLIVCDTPKMANIGGGLPYDPAIISVSSRSAPASDGAPAASAGSSRAGTPSRNSPLGQIIQNQRPGRGGYQQNFQANRGYNNYRGGFAGGYNNQRGHNNYGVPRVNHREKLKFESDFDFEKANEKFQEVLVDNLEKLNIEDKAEPEVEEKKDAAFYDKKTSFFDNISCESLEKAEGKTGRPDWKKERETNQETFGHNAVRSLNYRRGFGGRGRGGNRGYGGYNNGYQHQHQHRGGYNGGYRQNNGGYRRGGYAPRDNQGNTAAAAEQ
For B2, which binding is on record?
Its binding is “binds”.

— article PMC3364957
